Measurements published in patent US5618791A, “Memory enhancing peptides” (Shanghai Institute of Biochemistry, priority 1992, dated 1997).
At least one peptide structure holds a part that was inferred or is arguable (an end, a ring closure or a residue). Square brackets hold non-standard residues; d marks the D form. Peptide text beside a SMILES is read from it. * marks the point of attachment. Cys(free,S-linked) = N[C@@H](CS*)C(=O)O; pGlu = O=C1CC[C@@H](C(=O)O)N1

System: adult rats
Test: Passive avoidance response of adult rats, step-through one trial learning test in a shuttle box
Format: in vivo, rat
Details: for Passive Avoidance adult rat effective dose: shuttle box
Method: Biological activities of MEPs of the invention are confirmed by bioassay. Blood pressure measurements and urine output measurements were performed on adult rats after intravenous administration of MEPs under ether anesthesia. Passive avoidance behavior of adult rats was carried out in a step-through one trial learning test in a shuttle box, and brightness discrimination tests were performed in a radiant Y maze. Rats neonatally administered with MEPs of the invention were trained during an immature period and subsequently tested as adults.
Memory enhancing responses were assessed by two kinds of behavioral records, i.e., passive avoidance response of adult rats in a shuttle box and the performance in a radiant Y maze in the acquisition and retention of brightness discrimination of rats neonatally administered. The results are set out in Table I. All MEPs of the invention show significant positive behavioral responses when rats have received a subcutaneous administration of MEP within the dosage range 1 ng-1 μg per animal. MEPs of the invention show a memory enhancing potency 10-100 times that of AVP.

SMILES	memory enhancing activity compared to ZNC(C)PR (adult rat passive avoidance, Table I)	Passive Avoidance adult rat effective dose
CC(C)C[C@H](NC(=O)[C@H](CSSC[C@H](N)C(=O)O)NC(=O)[C@H](CC(N)=O)NC(=O)[C@@H]1CCC(=O)N1)C(=O)N[C@@H](CCCNC(=N)N)C(=O)O [ZNC(C)LR] ([pGlu]NC(Cys(free,S-linked))LR-OH)	comparable activity	30-100 ng/200 g body wt.
N=C(N)NCCC[C@H](NC(=O)[C@@H]1CCCN1C(=O)[C@H](CSSC[C@H](N)C(=O)O)NC(=O)[C@H](CC(N)=O)NC(=O)[C@@H]1CCC(=O)N1)C(=O)O [ZNC(C)PR, reference compound] ([pGlu]NC(Cys(free,S-linked))PR-OH)	–	30-100 ng/200 g body wt.
C[C@H](NC(=O)[C@@H](N)CC(N)=O)C(=O)N1CCC[C@H]1C(=O)N[C@@H](CCCNC(=N)N)C(=O)O [NAPR] (H-NAPR-OH)	–	30 ng/200 g body wt.
